# Measurements as given in PubChem BioAssay AID504467 (National Center for Advancing Translational Sciences (NCATS), 2011).
# The campaign covered roughly 330,000 compounds. About 7,700 (2.3%) were called active. Inconclusive results, whose numbers are uncertain, are shown with a selection of clear calls. The call rests on the fitted dose curve; in most records, active means well fitted inhibition curve with a large enough effect; inconclusive means small, poorly fitted or top-dose-only effect, or effect the other way; inactive means flat fitted curve, though single readings scatter. Potencies of inconclusive entries are doubtful fits and often do not repeat.
# Experiment: qHTS screen for small molecules that inhibit ELG1-dependent DNA repair in human embryonic kidney (HEK293T) cells expressing luciferase-tagged ELG1; further: nearly all actives have a fitted effect of over 55% in size
# Details: HEK293T ELG1-luciferase reporter, luminescence, 16 h, DNA damage induced by 5-fluorouridine; activity change, negative = inhibition: at 46.1 µM (top of the series)
# In short: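 DMSO vehicle served as the neutral condition. Each well held 2,000 cells given 5-fluorouridine plus compound; after 16 hr at 37 °C/5% CO2, ONE-Glo was added and luciferase measured 30 min later.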
# On the % scale 0 is the no-effect control and ±100 the full control effect; potency means the concentration at half of the fitted maximal effect.
SMILES,Potency,"activity change, negative = inhibition"
Cc1cc(C)c2c(c1)-c1c(ssc1=S)C(C)(C)N2C(=O)CSc1nncn1C,"inconclusive: 18.4 µM [inhibitor, partial curve]",–
COc1ccc(CC(=O)Nc2ccncc2Cl)cc1,–,inactive: 0.322%
N#Cc1cc2c(nc1SC1CC(=O)N(c3ccccc3)C1=O)CCC2 (configuration not stated),"inconclusive: 5.17 µM [activator, full curve]",–
O=C(N/N=C/c1c(Cl)cccc1Cl)c1ccc(-n2cnnn2)cc1,"inconclusive: 32.6 µM [activator, partial curve, poor fit]",–
CC(C)c1ccc(CNn2cnnc2)cc1,"inconclusive: 0.58 µM [activator, single point]",–
CC1=C(C(=O)OCC2CCCCC2)C(c2ccc(O)cc2)NC(=O)N1 (configuration not stated),–,inactive: -7.72%
COc1cccc(CC(NC(C)=O)C(=O)NC2CCN(c3nc(C)cc(C)c3C#N)CC2)c1 (configuration not stated),"inconclusive: 18.4 µM [inhibitor, partial curve, poor fit]",–
CSCCC1NC(=S)N(Cc2ccccc2)C1=O (configuration not stated),–,inactive: -4.23%
Cc1ccc(NC(=O)N2N=C(c3ccc(F)cc3)CC2c2ccc(F)cc2)cc1 (configuration not stated),"inconclusive: 10.3 µM [inhibitor, partial curve, poor fit]",–
COc1cccc(NC(=O)c2ccn(C)n2)c1,"inconclusive: 14.6 µM [activator, partial curve]",–
O=c1[nH]n(-c2ccc(Cl)cc2)c(=O)c(Cl)c1Cl,–,inactive: 25%
Cn1c(O)c(N=NC(=O)c2ccccc2O)c2ccccc21,"inconclusive: 11.6 µM [activator, partial curve]",–
NC(=O)Cn1nnc(-c2ccc(NC(=O)c3ccc(F)cc3)cc2)n1,"inconclusive: 16.4 µM [activator, partial curve]",–
COCCCNC(=O)c1ccc2nc(Cc3ccc(OC)cc3)oc2c1,"inconclusive: 20.6 µM [activator, partial curve]",–
Cc1ccc(C(=O)/C=C/c2ccc3c(c2)OCCO3)c(O)c1,"inconclusive: 16.4 µM [activator, partial curve]",–
COc1cc(-c2nc(C(=O)NCC3CCCO3)cc3c2[nH]c2ccccc23)cc(OC)c1OC (configuration not stated),"inconclusive: 23.1 µM [inhibitor, single point]",–
CCCCCCSc1ccc(-c2nc3ccc(C)cn3c2NCc2ccccc2)cc1OC,"inconclusive: 31.6 µM [inhibitor, single point]",–
COc1cccc(N2CCN(C(=O)c3ccc(Cl)c(NC4=NC5CS(=O)(=O)CC5S4)c3)CC2)c1 (configuration not stated),–,inactive: -3.03%
CC(C)(CO)CNC(=O)CCc1nnc(-c2ccc(-c3ccccc3)cc2)o1,"inconclusive: 5.8 µM [activator, partial curve]",–
CCCCCNc1nc2sc3c(c2c(=O)n1-c1cccc(Cl)c1)CCN(C)C3,"inconclusive: 13 µM [inhibitor, partial curve]",–
O=C(Nc1cccc(-c2cn3ccccc3n2)c1)C1CC1,"inconclusive: 20.6 µM [activator, single point]",–
CCOC(=O)c1cnc2c(C)c(Cl)ccc2c1N1CCOCC1,"inconclusive: 16.4 µM [inhibitor, partial curve, poor fit]",–
COc1ccc(C2CCCN2C(=S)Nc2c(C)cccc2C)cc1OC (configuration not stated),–,inactive: 6.52%

SMILES,Potency,"activity change, negative = inhibition"
COc1ccc(CCN(Cc2ccccn2)C(=S)Nc2ccccc2C)cc1OC,"inconclusive: 20.6 µM [inhibitor, partial curve]",–
CC(=O)c1cccc(-n2nnnc2SCC(=O)Nc2cc(C)on2)c1,"inconclusive: 18.3 µM [inhibitor, partial curve, poor fit]",–
CCOC(=O)Cn1ncc(-c2ccccc2)c1N,"inconclusive: 18.4 µM [activator, partial curve]",–
O=C(c1cc2ccccc2oc1=O)N1CCCCCCC1,"inconclusive: 32.6 µM [activator, partial curve, poor fit]",–
COc1ccc(Br)cc1CN(C)C(C)C(=O)Nc1cc([N+](=O)[O-])ccc1OC (configuration not stated),"inconclusive: 18.4 µM [inhibitor, partial curve, poor fit]",–
Cc1ccccc1C(=O)N(Cc1cccs1)C1CCS(=O)(=O)C1 (configuration not stated),–,inactive: -1.24%
CCCCC(=O)NC(c1ccccc1)c1ccc2cccnc2c1O (configuration not stated),"inconclusive: 6.51 µM [inhibitor, single point]",–
COc1ccccc1NC(=O)c1nnn(CC(=O)Nc2cccc(SC)c2)c1N,"inconclusive: 29.1 µM [activator, single point]",–
CN(C)C(=O)c1ccc(NC(=O)COC(=O)c2cc3c(s2)CCCCC3)cc1,"inconclusive: 23.1 µM [inhibitor, single point]",–
Cc1nc2cc(-c3ccc(F)cc3)nn2c(N2CCOCC2)c1C,"inconclusive: 35.5 µM [activator, single point]",–
O=c1c([N+](=O)[O-])c(N2CCCCCC2)c2ccccc2n1-c1ccccc1,"inconclusive: 0.116 µM [activator, partial curve, poor fit]",–
COc1ccc2cnn(-c3ccc(OC(F)(F)Cl)cc3)c(=O)c2c1OC,–,inactive: 28.3%
C=CCn1c(-c2cccs2)nc2ccccc21,–,inactive: 26.4%
COc1cc2c(cc1OC)CN(C(=O)c1ccc(S(=O)(=O)N3CCCC3)cc1)CC2,"inconclusive: 29.1 µM [inhibitor, single point]",–
COc1ccc(-c2cc3ccccc3n2CC(O)CNC(CO)(CO)CO)cc1 (configuration not stated),–,inactive: 12.6%
CC1CCC(NC(=O)CN2C(=O)c3cccnc3Oc3ccc(Cl)cc32)CC1 (configuration not stated),"inconclusive: 20.6 µM [activator, partial curve, poor fit]",–
CC(CC1C(C#N)=C(N)SC(N)=C1C#N)c1ccccc1 (configuration not stated),"inconclusive: 18.4 µM [inhibitor, partial curve, poor fit]",–
Cc1ccc(CN2C(=O)N/C(=C\c3ccc(N4CCOCC4)cc3)C2=O)cc1,"inconclusive: 16.4 µM [activator, single point]",–
Cc1cc(Cl)ccc1Oc1nc(-c2ccc(F)cc2)ccc1C#N,"inconclusive: 0.651 µM [inhibitor, single point]",–
CCOC(=O)C1=C(O)c2ccccc2C(=O)/C1=C\c1ccc(C)cc1,"inconclusive: 18.4 µM [activator, single point]",–
O=C1CCC(C(=O)N2CCOCC2)CN1Cc1ccc(Cl)cc1 (configuration not stated),–,inactive: 7.71%
O=C(CSc1nc2ccc(Nc3nc(N4CCOCC4)nc(N4CCOCC4)n3)cc2s1)NCc1ccco1,active: 2.59 µM,–
O=C(CSCc1ccccc1Cl)NNC(=S)Nc1ccccc1,–,inactive: 13.4%

SMILES,Potency,"activity change, negative = inhibition"
N#Cc1ccc(Cl)cc1NC(=O)COC(=O)c1cccc(S(=O)(=O)N2CCOCC2)c1,–,inactive: -4.04%
O=[N+]([O-])c1cccc(-c2nnc(-c3ccc4c(c3)OCO4)o2)c1,"inconclusive: 4.61 µM [activator, full curve]",–
CC(C)N(C(=O)[C@H]1C[C@H](CC(=O)NCCCN(C)C)C(=O)N2CCc3c([nH]c4ccc(Cl)cc34)[C@]12C)C(C)C,"inconclusive: 23.1 µM [activator, single point]",–
Cn1c(/N=C/c2c(O)ccc3ccccc23)nc2ccccc21,"inconclusive: 20.6 µM [activator, single point]",–
Cc1cc(OCC(O)CN2CCc3ccccc3C2)ccc1Cl (configuration not stated),–,inactive: -11.1%
Cc1coc2c1C(=O)C(=O)c1c-2ccc2c1CCCC2(C)C,"inconclusive: 23.1 µM [activator, single point]",–
CCn1c(COc2ccc(C)cc2)nnc1SCC(=O)Nc1cc(OC)ccc1OC,"inconclusive: 20.6 µM [inhibitor, single point]",–
Cc1ccccc1N1CCN(C2CCCN(C(=O)c3ccccn3)C2)CC1 (configuration not stated),"inconclusive: 18.3 µM [inhibitor, single point]",–
CCn1cc([N+](=O)[O-])c(C(=O)N2N=C3/C(=C/c4cccs4)CCCC3C2c2cccs2)n1 (configuration not stated),"inconclusive: 29.1 µM [inhibitor, single point]",–
Clc1ccc(Nc2ccc(NCc3ccccc3)nn2)cc1,"inconclusive: 20.6 µM [activator, single point]",–
CCC(C)(C)NC(=S)Nc1ccccc1C,–,inactive: -6.34%
O=C(Nc1ccccc1F)c1ccc([N+](=O)[O-])s1,active: 23.1 µM,–
CC(C)(C)n1ncc2c(=O)n(Cc3cccc(Cl)c3)cnc21,"inconclusive: 29.1 µM [inhibitor, single point]",–
O=C(c1ccccc1)N1CCN(c2ncnc3c(-c4ccccc4)nsc23)CC1,"inconclusive: 18.3 µM [inhibitor, single point]",–
COc1ccc(N2CCN(C(=O)COC(=O)c3cccc(S(=O)(=O)Nc4ccccc4OC)c3)CC2)cc1,"inconclusive: 18.3 µM [inhibitor, single point]",–
CN(C(=O)c1ccc2c(c1)OCO2)C1CCCCC1,"inconclusive: 20.6 µM [activator, partial curve]",–
O=[N+]([O-])c1ccc(CN2CCN(Cc3c[nH]c4ccccc34)CC2)cc1,"inconclusive: 14.6 µM [inhibitor, partial curve, poor fit]",–
Cc1ccc(C(=O)NCC(=O)OC(C)C(=O)NCCC2=CCCCC2)cc1C (configuration not stated),–,inactive: 4.16%
COc1ccc(CNC(=O)C[C@H]2C[C@H](C(=O)N3CCOCC3)[C@@]3(CCC4CCCC4)c4[nH]c5ccc(Cl)cc5c4CCN3C2=O)cc1OC,"inconclusive: 23.1 µM [inhibitor, single point]",–
Cc1cccc(C)c1NC(=O)COC(=O)c1cc(-c2cccnc2)nc2ccccc12,–,inactive: -18.6%
O=C(CNS(=O)(=O)c1ccc(F)cc1)Nc1ccccc1,"inconclusive: 20.6 µM [activator, partial curve, poor fit]",–

# 2 entries picked at random from those above, as already listed:
SMILES,Potency,"activity change, negative = inhibition"
Cc1cc(Cl)ccc1Oc1nc(-c2ccc(F)cc2)ccc1C#N,"inconclusive: 0.651 µM [inhibitor, single point]",–
Cc1ccc(NC(=O)N2N=C(c3ccc(F)cc3)CC2c2ccc(F)cc2)cc1 (configuration not stated),"inconclusive: 10.3 µM [inhibitor, partial curve, poor fit]",–
